Binding data for 1 substance are collected here from publication PMC8464644.

Protein sequences, listed by entry. Tags and fused reporters are not part of them.
UniProt P11142: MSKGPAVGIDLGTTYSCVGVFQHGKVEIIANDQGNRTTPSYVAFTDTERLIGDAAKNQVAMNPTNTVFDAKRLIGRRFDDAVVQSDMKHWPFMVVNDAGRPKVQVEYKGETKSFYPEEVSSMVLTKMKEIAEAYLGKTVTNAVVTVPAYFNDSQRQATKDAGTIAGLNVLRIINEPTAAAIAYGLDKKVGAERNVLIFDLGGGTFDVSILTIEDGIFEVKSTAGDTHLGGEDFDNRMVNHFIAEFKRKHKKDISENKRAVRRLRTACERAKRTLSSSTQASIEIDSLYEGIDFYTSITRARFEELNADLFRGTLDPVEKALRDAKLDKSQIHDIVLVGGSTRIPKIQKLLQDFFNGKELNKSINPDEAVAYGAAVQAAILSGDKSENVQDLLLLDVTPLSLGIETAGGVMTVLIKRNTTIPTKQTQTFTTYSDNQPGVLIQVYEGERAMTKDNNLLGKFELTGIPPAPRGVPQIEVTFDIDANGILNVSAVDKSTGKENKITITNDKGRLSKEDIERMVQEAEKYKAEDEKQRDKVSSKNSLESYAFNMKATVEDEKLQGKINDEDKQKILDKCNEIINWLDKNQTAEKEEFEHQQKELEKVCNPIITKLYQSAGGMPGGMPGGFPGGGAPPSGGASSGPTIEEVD

This test deals with APP-M7 (all three KFERQ-like CMA motifs mutated) (UniProt P05067). Nature of the test: co-IP; cells (HEK293T or SH-SY5Y) transfected with pcDNA5-APP or pcDNA5-APP-M7; TAP lysis buffer; APP antibodies on Protein A/G magnetic agarose beads 6 h at 4 °C; endogenous Hsc70 and Lamp2a detected by Western blot (Fig. S6F).

No constants are given. Whether binding was seen depends on the method and setting. In cells and extracts the contact can be indirect.

Take “Hsc70 (endogenous) (from UniProt P11142 1-646)”: the binding result is recorded as “no binding”.
